The values that follow come from PubChem BioAssay AID330 (DTP/NCI, 2004).

The test system of this assay is P388 leukemia ip, CD2F1 mice, survival T/C. Nature of the assay: NCI In Vivo Anticancer Drug Screen. Data for tumor model P388 Leukemia (intraperitoneal) in CD2F1 (CDF1) mice. To be noted: T/C endpoint: median survival time, higher T/C = longer survival.
[1] abbreviates: dose: 100.0 mg/kg/injection, schedule: Q01DX005 (ip), vehicle: saline with Tween-80.
The mark [2] stands for this setting: dose: 200.0 mg/kg/injection, schedule: Q01DX005 (ip), vehicle: saline with Tween-80.
[3] abbreviates: dose: 50.0 mg/kg/injection, schedule: Q01DX005 (ip), vehicle: saline with Tween-80.
Setting [4] is: dose: 200.0 mg/kg/injection, schedule: Q01DX005 (ip), vehicle: Klucel (hydroxypropylcellulose) (HPC).

The list is a part of this screen's results and no random one: it gathers tests that were run many times, whatever their T/C, doses with no T/C, and many T/C values between a quarter and a half above the control. Further doses and runs are listed elsewhere. T/C is the treated group as % of the vehicle group. Some entries give survivors of the animals treated and no T/C: the source files T/C as zero there, which appears to mark a toxic dose or a test without result, not a measured value. Some doses without a T/C left all or most animals alive at the check, yet need not have been tolerated: survival well below the control is almost never listed, so the zero probably covers shortened survival too. Survivors were counted at the toxicity check, usually on the fifth day, unless a day is given; later deaths do not show. Schedules are NCI's codes, taken here to give the interval after Q, in days (D) or hours (H), and the number of doses after X. Some structures stand for samples that the source files as different forms (salt, stereo form or complex); doses refer to the form tested. Marks such as (2×) stand for listed records that agree. Some entries were tested several times; their values stand side by side, smallest first. Where survival is the endpoint, this PubChem deposit counts one and a half times the control or more as active, and values a quarter to a half above the control carry no call in these data; other NCI protocols may use other cut-offs. Some T/C values carry the count of animals alive at the toxicity check (mostly the fifth day); without a count, all were alive then.

As for `COC(=O)c1cc(=O)nc(NN=C2c3ccccc3-c3ccccc32)s1`, the survivor count by setting is: under setting [1], 5 of 5; under setting [2], 3 of 5.
On to `CCCCN(CCCC)C(=N)OC1CCCCC1`, for which the survivor count runs as follows: under setting [3], 0 of 6; under setting [1], 0 of 6; under setting [2], 0 of 6.
Regarding `CN(C)C1=C(N(C)C)C1N(C)C`, the survivor count is, setting by setting: (dose: 100.0 mg/kg/injection, schedule: Q04DX003 (ip), vehicle: saline) 5 of 6; (dose: 200.0 mg/kg/injection, schedule: Q04DX003 (ip), vehicle: saline) 0 of 6; (dose: 400.0 mg/kg/injection, schedule: Q04DX003 (ip), vehicle: saline) 0 of 6.
As for `C=CCN=C(NC(C)(C)C)c1ccccc1`, the survivor count under setting [4] was 0 of 5.
Turning to `CC1=C/C(=N\SC(c2ccccc2)(c2ccccc2)c2ccccc2)CCC1`, where the note is “dose: 400.0 mg/kg/injection, schedule: Q04DX002 (ip), vehicle: saline with Tween-80”, the survivor count was 6 of 6.
As to `[Cl][Pt][Cl].c1c[nH]cn1.c1c[nH]cn1`, the T/C by setting is: (dose: 25.0 mg/kg/injection, schedule: Q04DX002 (ip), vehicle: saline with Tween-80) 125 % of control; (dose: 50.0 mg/kg/injection, schedule: Q04DX002 (ip), vehicle: saline with Tween-80) 132 % of control; (dose: 100.0 mg/kg/injection, schedule: Q04DX002 (ip), vehicle: saline with Tween-80) 139 % of control.
For the compound `O=C1Cc2ccccc2C(=O)N1CCN1CCOCC1`, the survivor count (dose: 400.0 mg/kg/injection, schedule: Q01DX001 (ip), vehicle: saline) is listed as 2 of 6.
With `C=C1C(=O)OC2/C=C(\C=O)C3OC3C3OC3(C)CC(OC(=O)/C(=C/C)CO)C12` (stereo not drawn), the survivor count (dose: 25.0 mg/kg/injection, schedule: Q01DX005 (ip), vehicle: Klucel (hydroxypropylcellulose) (HPC)) is 2 of 6; the survivor count (dose: 50.0 mg/kg/injection, schedule: Q01DX005 (ip), vehicle: Klucel (hydroxypropylcellulose) (HPC)) is 0 of 6; the survivor count (dose: 100.0 mg/kg/injection, schedule: Q01DX005 (ip), vehicle: Klucel (hydroxypropylcellulose) (HPC)) was 0 of 6; the survivor count under setting [4] is 0 of 6.
For `C[N+]1(Cc2ccccc2)C2CCC(O)C1CC2` (stereo not drawn), the survivor count is reported as 2 of 6 (dose: 60.0 mg/kg/injection, schedule: Q01DX005 (ip), vehicle: saline); 0 of 6 (dose: 120.0 mg/kg/injection, schedule: Q01DX005 (ip), vehicle: saline); 0 of 6 (dose: 240.0 mg/kg/injection, schedule: Q01DX005 (ip), vehicle: saline).
`CN(C)CC1=Nc2cccc3cccc(c23)N1`: the survivor count (dose: 240.0 mg/kg/injection, schedule: Q01DX005 (ip), vehicle: saline with Tween-80) is listed as 0 of 6.
Turning to `COc1cc2c(cc1OC)C(OC)N(C)c1c-2ccc2cc3c(cc12)OCO3` (stereo not drawn), the T/C is, setting by setting: (dose: 3.13 mg/kg/injection, schedule: Q01DX009 (ip), vehicle: other) 134 % of control; (dose: 4.0 mg/kg/injection, schedule: Q01DX009 (ip), vehicle: saline) 126 % of control; (dose: 4.0 mg/kg/injection, schedule: Q01DX009 (ip), vehicle: water) 125 % of control [9 of 10 alive]; (dose: 6.25 mg/kg/injection, schedule: Q01DX009 (ip), vehicle: other) 140 % of control; (dose: 8.0 mg/kg/injection, schedule: Q01DX009 (ip), vehicle: saline) 130 % of control; (dose: 8.0 mg/kg/injection, schedule: Q01DX009 (ip), vehicle: water) 128 % of control. Further, the T/C runs as follows: (dose: 8.0 mg/kg/injection, schedule: Q03HX008 (ip), vehicle: water) 136 % of control [9 of 10 alive]; (dose: 12.5 mg/kg/injection, schedule: Q01DX009 (ip), vehicle: other) 149 % of control; (dose: 16.0 mg/kg/injection, schedule: Q01DX009 (ip), vehicle: saline) 136 % of control; (dose: 16.0 mg/kg/injection, schedule: Q01DX009 (ip), vehicle: water) 134 % of control [9 of 10 alive]; (dose: 44.0 mg/kg/injection, schedule: Q04DX003 (ip), vehicle: saline with Tween-80) 140 % of control (2×); (dose: 150.0 mg/kg/injection, schedule: Q04DX003 (ip), vehicle: saline with Tween-80) 136 % of control (2×). For the same compound, the survivor count was 0 of 10 (dose: 16.0 mg/kg/injection, schedule: Q03HX008 (ip), vehicle: water); 6 of 6 (dose: 25.0 mg/kg/injection, schedule: Q01DX009 (ip), vehicle: other); 9 of 10 (dose: 32.0 mg/kg/injection, schedule: Q01DX009 (ip), vehicle: water); 2 of 6 and 3 of 6 (dose: 50.0 mg/kg/injection, schedule: Q01DX009 (ip), vehicle: other); 10 of 10 (dose: 64.0 mg/kg/injection, schedule: Q01DX009 (ip), vehicle: saline); 0 of 10 (dose: 64.0 mg/kg/injection, schedule: Q01DX009 (ip), vehicle: water). For the same compound, the survivor count (dose: 64.0 mg/kg/injection, schedule: Q01DX009 (sc), vehicle: water) was 10 of 10; the survivor count (dose: 100.0 mg/kg/injection, schedule: Q01DX009 (ip), vehicle: other) is 0 of 6; the survivor count (dose: 128.0 mg/kg/injection, schedule: Q01DX001 (ip), vehicle: water) is reported as 1 of 10; the survivor count (dose: 128.0 mg/kg/injection, schedule: Q08DX002 (ip), vehicle: water) is given as 1 of 10; the survivor count (dose: 150.0 mg/kg/injection, schedule: Q01DX009 (ip), vehicle: saline with Tween-80) is 6 of 6 (2×); the survivor count (dose: 200.0 mg/kg/injection, schedule: Q01DX009 (ip), vehicle: other) is 0 of 6. Besides, under “dose: 400.0 mg/kg/injection, schedule: Q01DX009 (ip), vehicle: other”, the survivor count is listed as 0 of 6.
Regarding `O=C1OC(=O)C2=C1CCC2`, the survivor count reads like this: (dose: 100.0 mg/kg/injection, schedule: Q01DX009 (ip), vehicle: distilled water + Tween-80) 3 of 6; (dose: 200.0 mg/kg/injection, schedule: Q01DX009 (ip), vehicle: distilled water + Tween-80) 2 of 6.
Consider `CCN(CC)CCCNc1cc(OC)c(Nc2ccccc2)c2cccnc12`, for which the survivor count was 0 of 5 under setting [3], 0 of 5 under setting [1] and 0 of 5 under setting [2].
Regarding `Cc1ccc(C)n1-n1nnnc1N`, the survivor count under setting [2] is 3 of 5.
Turning to `CNc1nc(C)nc(NC)n1`, under “dose: 400.0 mg/kg/injection, schedule: Q01DX009 (ip), vehicle: Klucel (hydroxypropylcellulose) (HPC)”, the survivor count was 0 of 6.
Turning to `COc1cccc2c1C(=O)C(C1CO1)=CC2=O` (stereo not drawn), the survivor count is 0 of 6 (dose: 50.0 mg/kg/injection, schedule: Q01DX001 (ip), vehicle: Klucel (hydroxypropylcellulose) (HPC)); 0 of 6 (dose: 100.0 mg/kg/injection, schedule: Q01DX001 (ip), vehicle: Klucel (hydroxypropylcellulose) (HPC)); 0 of 6 (dose: 200.0 mg/kg/injection, schedule: Q01DX001 (ip), vehicle: Klucel (hydroxypropylcellulose) (HPC)); 0 of 6 (dose: 400.0 mg/kg/injection, schedule: Q01DX001 (ip), vehicle: Klucel (hydroxypropylcellulose) (HPC)).
Regarding `O=C(O)c1ccc(N2N=C3C(=CC(=O)c4ccccc43)SCC2=O)cc1`, the survivor count was 1 of 6 and 2 of 5 (dose: 50.0 mg/kg/injection, schedule: Q01DX005 (ip), vehicle: saline + Tween-80 + alcohol); 0 of 6 (dose: 100.0 mg/kg/injection, schedule: Q01DX005 (ip), vehicle: saline + Tween-80 + alcohol); 0 of 6 (dose: 200.0 mg/kg/injection, schedule: Q01DX005 (ip), vehicle: saline + Tween-80 + alcohol).
In the case of `C=C1C(=O)O[C@@H]2C[C@@H](C)[C@@H]3CC[C@H](O)[C@@]3(COC(C)=O)C[C@@H]12`, the T/C (dose: 130.0 mg/kg/injection, schedule: Q01DX005 (ip), vehicle: Klucel (hydroxypropylcellulose) (HPC)) is 125 % of control.
As for `C1=CC(Cc2ccccc2)NC1` (stereo not drawn), the survivor count (dose: 400.0 mg/kg/injection, schedule: Q01DX001 (ip), vehicle: distilled water + alcohol) is reported as 3 of 6.
